The values that follow come from publication PMC6237750.

The exact form of at least one protein or probe is not confirmed. At least one verdict was read from the data and is not stated in words by the source.

The target in the series is DNA polymerase beta I260Q (NMR, crystal) (UniProt P06746). In words: NMR. The settings on record: dCpCpp (incorrect), 10 mM MgCl2; NMR: 50 mM HEPES, 100 mM KCl, 2 mM DTT, 10 mM MgCl2, 10% D2O, pH 7.4; recombinant protein.

As for “CGACCGACTGCGCATCAGCC / GGCTGATGCGC / GTCGGTCG [NMR substrate template T (20)]”, the binding result is reported as “binds”.
